Results from publication doi:10.1101/2020.02.04.933820.
These are yes or no findings as the source states them, for the method shown. Binding seen in cells or lysates may run through a third protein. Some results given as binding are weak or reduced against the parent protein; the word gives no strength. Sequences can lack the tags named with a protein.

Chains of the proteins cited; added tags and fusions are not shown.
UniProt P40477: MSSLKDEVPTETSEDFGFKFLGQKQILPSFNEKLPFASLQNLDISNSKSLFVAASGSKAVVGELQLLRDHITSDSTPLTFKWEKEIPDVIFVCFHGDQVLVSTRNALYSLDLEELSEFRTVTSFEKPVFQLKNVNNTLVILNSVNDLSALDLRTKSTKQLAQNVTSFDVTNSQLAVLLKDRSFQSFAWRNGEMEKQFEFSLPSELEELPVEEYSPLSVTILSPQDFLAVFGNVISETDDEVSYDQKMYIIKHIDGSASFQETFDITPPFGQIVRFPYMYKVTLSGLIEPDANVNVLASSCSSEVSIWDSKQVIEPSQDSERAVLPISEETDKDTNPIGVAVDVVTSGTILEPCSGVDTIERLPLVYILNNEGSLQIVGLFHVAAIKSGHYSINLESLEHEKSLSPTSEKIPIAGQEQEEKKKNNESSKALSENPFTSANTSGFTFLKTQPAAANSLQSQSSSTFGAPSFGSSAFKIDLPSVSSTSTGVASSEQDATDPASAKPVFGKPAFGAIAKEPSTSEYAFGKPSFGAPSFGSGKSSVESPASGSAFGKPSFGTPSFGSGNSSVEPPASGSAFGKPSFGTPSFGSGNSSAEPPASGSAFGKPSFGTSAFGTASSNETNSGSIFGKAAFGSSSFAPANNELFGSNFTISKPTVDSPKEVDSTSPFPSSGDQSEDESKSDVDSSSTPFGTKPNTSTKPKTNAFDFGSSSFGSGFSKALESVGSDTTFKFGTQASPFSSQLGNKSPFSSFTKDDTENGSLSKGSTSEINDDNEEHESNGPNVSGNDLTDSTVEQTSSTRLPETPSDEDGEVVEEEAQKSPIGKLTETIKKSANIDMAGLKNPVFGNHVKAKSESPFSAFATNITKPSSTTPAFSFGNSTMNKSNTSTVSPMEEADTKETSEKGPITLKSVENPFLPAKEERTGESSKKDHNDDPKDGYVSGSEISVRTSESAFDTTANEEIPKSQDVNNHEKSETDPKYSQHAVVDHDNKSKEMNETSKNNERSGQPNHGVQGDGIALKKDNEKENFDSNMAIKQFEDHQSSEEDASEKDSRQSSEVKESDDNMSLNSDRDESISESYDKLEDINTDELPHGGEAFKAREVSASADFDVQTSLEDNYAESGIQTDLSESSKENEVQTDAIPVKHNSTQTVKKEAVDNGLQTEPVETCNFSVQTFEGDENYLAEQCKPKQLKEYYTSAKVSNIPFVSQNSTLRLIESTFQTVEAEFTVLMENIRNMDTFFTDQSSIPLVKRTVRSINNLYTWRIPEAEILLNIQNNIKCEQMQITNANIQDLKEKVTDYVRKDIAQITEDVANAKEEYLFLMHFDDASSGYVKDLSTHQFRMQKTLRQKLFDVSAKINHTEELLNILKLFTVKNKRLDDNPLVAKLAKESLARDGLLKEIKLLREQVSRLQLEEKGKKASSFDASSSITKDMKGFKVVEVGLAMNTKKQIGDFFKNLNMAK

Biological target: Nup159 (split-Venus fusion) (S. cerevisiae) (UniProt P40477)
Assay: split reporter

binding: binds
B1: Atg8 (split-Venus fusion) (protein, UniProt P38182 1-117)
chain: MKSTFKSEYPFEKRKAESERIADRFKNRIPVICEKAEKSDIPEIDKRKYLVPADLTVGQFVYVIRKRIMLPPEKAIFIFVNDTLPPTAALMSAIYQEHKDKDGFLYVTYSGENTFGR
